PubChem BioAssay AID1159584, Peter MacCallum Cancer Centre – 2016

Test: 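Knock-downs that harm CDH1-null cells more than parental MCF10A cells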 (primary screen)
System: human MCF10A breast epithelial cells, parental and CDH1-null
Reagents: siRNA against human genes
Read-out: 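ATP luminescence (CellTiter-Glo) viability per line relative to mean mock wells over all plates, and the ratio of CDH1-null to parental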
Scale: CDH1-null / parental viability ratio: higher = CDH1-null cells survive relatively better than parental
This is an unselected part of about 18,000 reagents. Reagents against one gene are numbered here. Not all columns of the deposit are shown. No sequences are given here. Not given: the amount of reagent, the time to read-out.

NMRAL1 — CDH1-null / parental viability ratio: 0.86
MMAB — CDH1-null / parental viability ratio: 1.02
HIF3A — CDH1-null / parental viability ratio: 0.92
PIGA — CDH1-null / parental viability ratio: 0.89
EPN1 — CDH1-null / parental viability ratio: 1.05
PEX7 — CDH1-null / parental viability ratio: 0.97
AK9 #1 — CDH1-null / parental viability ratio: 0.84
AK9 #2 — CDH1-null / parental viability ratio: 1.23
AK9 #3 — CDH1-null / parental viability ratio: 0.79

Records listed so far whose target name starts with P or p:
PIGA — CDH1-null / parental viability ratio: 0.89
PEX7 — CDH1-null / parental viability ratio: 0.97

The list goes on.
SLC1A1 — CDH1-null / parental viability ratio: 0.75
MLLT10 — CDH1-null / parental viability ratio: 0.98
UGCG — CDH1-null / parental viability ratio: 0.84
DAZAP1 — CDH1-null / parental viability ratio: 1.05
RASGRF1 — CDH1-null / parental viability ratio: 1.12
CDT1 — CDH1-null / parental viability ratio: 1
RALGAPA1 — CDH1-null / parental viability ratio: 1.46
CERKL — CDH1-null / parental viability ratio: 1.11
PBX1 — CDH1-null / parental viability ratio: 0.84
DAGLB — CDH1-null / parental viability ratio: 0.97
APOL4 — CDH1-null / parental viability ratio: 0.88
PAQR6 — CDH1-null / parental viability ratio: 1.35
CDK13 — CDH1-null / parental viability ratio: 0.89
NPAS2 — CDH1-null / parental viability ratio: 1.15
LIN37 — CDH1-null / parental viability ratio: 0.85
